For some of these results: At least one compound was matched to its structure with a doubt left. Some results were stated once for a whole list of compounds, not compound by compound.
Legend:
T cells [1] = assay: T cell viability by flow cytometry; type: cell-based, human; conditions: after 4 days of treatment
Protocol: (§1) Human peripheral blood mononuclear cells (PBMC) and purified T cells from healthy donors were purchased from […] Technologies (CA). Cells (7.5×10^6/ml) were cultured in the RPMI supplementing with 10% heat-inactivated fetal bovine serum (vWR), 1% penicillin/streptomycin (SigmaMillipore), 1% sodium pyruvate, and 1% non-essential amino acids (Gibco) in 24 well plates in the presence of 100 IU/ml interleukin 2 ([…] Technologies or HIV reagent program (managed by ATCC).
(§2) Then, cells were induced with T cell activator ([…]) in the presence of the drugs for 2 more days. After 4 days, the viability of treated T cells was analyzed using Flow cytometry. The supernatants for both PBMC and T cells were collected for further analysis.

[2] = tested on: TCR signaling in Jurkat T cells; assay: TCR activation in Jurkat T cells (immunoblotting); type: cell-based
[3] = tested on: WT-Src-EGFP construct and endogenous Src; assay: Src myristoylation by click chemistry; type: cell-based; conditions: COS-7 and IM9 cells, concentration dependent
[4] = tested on: freshly isolated human lymphocytes; assay: Lymphocyte viability assay; type: cell-based; conditions: 96 hr
[5] = tested on: BCR signaling in BL2 cells; assay: BCR signaling after anti-IgM in BL2 cells (Western blot); type: cell-based
Protocol: IM9, Ramos, SU-DHL-10 and COS-7 were purchased from ATCC. BL2, DOHH2, WSU-DLCL2 & BJAB were purchased from DSMZ (Germany). Ramos and BL2 were kind gifts of Drs. Jim Stone and Robert […] of University of Alberta. VDS isolation was described in Tosato G, et al. (reference 47). VDS, BJAB and SU-DHL-10 were kind gifts of Dr. Michael Gold of the University of British Columbia. HUVEC cells (pooled from up to 4 umbilical cords) were purchased from PromoCell. […] Cell lines were tested regularly for mycoplasma contamination using MycoAlert Plus Mycoplasma Detection Kit (Lonza, ME, USA). All cell lines tested negative for mycoplasma contamination. […] Please see supplementary Table 3 for cell line names, types and histology. For transfections, adherent cells COS-7 cells were transfected using X-tremeGENE9 DNA (Roche) transfection reagent according to manufacturer's instructions. For BCR activation experiments, cells were incubated with 25 μg/ml of Goat F(ab')2 anti-human IgM (or anti-human IgM (μ chain) showing identical BCR activation properties) for 2 minutes and the activation was stopped by the addition of 1 mM vanadate (Bio Basic Inc) solution in PBS. Protein concentrations were determined by BCA assay (Thermo Scientific) according to manufacturer's instructions. Samples were prepared for electrophoresis by the addition of 5× loading buffer and boiled for 5 min. […] After electrophoresis, gels are transferred onto […] nitrocellulose membrane (Bio-Rad) thereafter probed with antibodies as described in materials section.

T cells [6] = assay: Multiplex cytokine array, activated T cell supernatant; type: cell-based, human; conditions: 48 h drug, then T cell activator with drug 2 more days
Protocol: as §1, §2
The collected supernatants were analyzed for various biomarkers using multiplex cytokine array (Eve Technologies Discovery assay, Calgary, CA) either human cytokine/chemokine 71-Plex (HD71) for PBMC or human proinflammatory focused 15-Plex (HDF15) for T cells samples.

BL2, Ramos and IM9 cells = assay: Apoptosis by PARP-1 and caspase-3 cleavage (Western blot); type: cell-based; conditions: but not IM9, 72 hr
468 human kinases = assay: scanMAX KINOMEscan; type: binding
PBMC [7] = assay: Multiplex cytokine array, PBMC supernatant; type: cell-based, human; conditions: 0-10 ug/ml, 4 days
[8] = tested on: BL2, Ramos, BJAB, DOHH2, WSU-DLCL2, SU-DHL-10 vs IM9 and VDS B-cells; assay: Calcein viability assay, lymphoma lines vs benign B-cells; type: cell-based; conditions: 0.1 or 1.0 μM, 48 and 96 hrs
[9] = tested on: BCR-induced calcium mobilization in BL2 cells; assay: Fura-2 intracellular calcium measurement; type: cell-based; conditions: 1 μM, 48 hours
[10] = tested on: cell lines originating from solid tumors; assay: ChemPartner cell line screen, CellTiter Blue; type: cell-based; conditions: day 6, all types of cancer cell lines tested
Protocol: 131 cell lines were seeded in 96-well plate, black wall, tissue culture treated (from Corning, Cat.3904) and cultured following ATCC formulation. Cell viability after 72 hrs and 144 hrs was measured using Cell Titer Blue Viability Assay (from Promega, Cat. G8081, Lot. No. 0000190181) and fluorescence at 560/590 nm was recorded with Enspire (PerkinElmer). EC50 was calculated using XLfit software (5.5).

Lyn and HGAL = Lyn and HGAL intracellular staining in PBMC subsets; type: cell-based, human; conditions: 0-10 ug/ml, 4 days
[11] = tested on: Src and Lyn SFK protein levels; assay: SFK protein levels (Western blot); type: cell-based; conditions: lymphoma cell lines in comparison to IM9 and VDS; 0.1 or 1.0 μM, 24-48 hrs
Protocol: Cells were harvested, washed in cold PBS, and lysed in […] SDS-RIPA buffer (50 mM Tris-HCl pH 8.0, 150 mM NaCl, 1% Igepal CA-630, 0.5% sodium deoxycholate, 2 mM MgCL2, 2 mM EDTA with 1×complete protease inhibitor; (Roche Diagnostics) by rocking for 15 min at 4° C. The lysates were centrifuged at 16,000 g for 10 min at 4° C., and the post-nuclear supernatant was collected.
Protein concentrations were determined by BCA assay (Thermo Scientific) according to manufacturer's instructions. Samples were prepared for electrophoresis by the addition of 5× loading buffer and boiled for 5 min. If not stated otherwise, […] of total protein per lane is loaded on a 12.5% acrylamide gels. After electrophoresis, gels are transferred onto […] nitrocellulose membrane (Bio-Rad) thereafter probed with antibodies as described in materials section.

PBMC [12] = assay: PBMC viability and cell subsets by flow cytometry; type: cell-based, human
[13] = tested on: hematological (blood) cancer cells; assay: Horizon cell line screen, growth inhibition; type: cell-based; conditions: 68 cell lines, 96 hr; hematological vs other cancer cell line types
[14] = tested on: TCR signaling in primary T cells; assay: TCR activation in primary T cells (immunoblotting); type: cell-based, human; conditions: for P-tyrosine phosphorylation (PY99), P-ERK activation, P-SFK: CD3/CD28 antibodies 30 min
BL2 and IM9 cells = assay: Calcein viability, PCLX-001 vs dasatinib and ibrutinib; type: cell-based; conditions: for effect of addition to PCLX-001 on viability: 0.1 and 1 μM with 0.01, 0.1 and 1 μM PCLX-001, 96 hours, IM9 and BL2; for effect on viability of BL2 and IM9 cells: 48 and 96 hrs; for cell death: BL2 cells, 0.1 and 1.0 μM, 48 hours
Protocol: Calcein assay consists of measuring the cell viability ratio (live cells/total cells and expressed as % viability). Cells were stained with the Nuclear-ID Blue/Red cell viability reagent (GFP-certified, Enzo Life Sciences) to identify total cells, and dead cells while live cells were stained with Calcein AM (Life Technologies) according to manufacturer's instructions. Cell count was performed using a Cytation 5 Cell Imaging Multi-Mode Reader (Biotek Instruments, Inc.) and analysed by Biotek Gen5 Data Analysis software (version 2.09).

[15] = 100 μM, MRCKA, PIP5K2C and SRPK1

## Cc1nn(C)c(C)c1CCOc1c(-c2ccc3c(c2)c(CN(C)C)nn3C)ccc(F)c1F [IMP-1088, reference compound]
T cells [1]
  survival of cells relative to untreated samples: ≤ 10%

## Cc1c(N[S+](=O)([O-])c2c(Cl)cc(-c3ccnc(N4CCNCC4)c3)cc2Cl)c(CC(C)C)nn1C [PCLX-001]
[2]; 1 μM, 24/48 h
  TCR dependent P-ERK activation: inhibit P-ERK activation
[2]; 0.1 and 1 μM, 48 h
  P-ERK activation and P-SFK: inhibit P-ERK activation and phosphorylation of Src family kinases
[3]
  myristoylation of WT-Src-EGFP and endogenous Src: inhibits the myristoylation
[4]
  lymphocyte survival: only marginally affects
[5]; 0.1 and 1.0 μM, 48 hours
  levels of P-ERK, NFκB, c-Myc and CREB: reduces the levels
[5]; 0.1 or 1.0 μM, 48 hrs
  HGAL and Arf1 protein levels: mediates the reduction
  anti-IgM stimulated BCR mediated tyrosine phosphorylation: near complete abrogation
T cells [6]
  level of IL-5, IL-10 and IL-13: significantly reduced
  level of IL-6, IL-8 and IFN-gamma: significantly reduced
BL2, Ramos and IM9 cells
  apoptosis (PARP-1 and caspase-3 cleavage): selectively induces apoptosis
468 human kinases; [15]
  kinase activity score: < 35 % of control
  number of kinases found to weakly bind: 3
468 human kinases; 196 μM
  possible positive hits: 3
468 human kinases; up to 10 μM
  kinases binding: No kinases were found binding
PBMC [7]
  production of I-309, Eotaxin-2 and GM-CSF: induce the production
  production of IL-1RA, IL-10, IL-13 and IL-16: induce the production
  production of IL-6, TNF-α, IL-8, IFN-γ and IL-17a: induce the production
  production of MIP-1α, MCP-2, TARC and GRO-α: induce the production
  production of RATES, MIP-1β, MCP-4 and MDC: induce the production
[8]
  sensitivity of SU-DHL-10: equally sensitive
[9]
  anti-IgM BCR-induced calcium mobilization: potently inhibits
[10]
  killing of cancer cell lines: effectively kills nearly all types of cancer cell lines tested
Lyn and HGAL
  Lyn and HGAL in monocytes: significantly reduced
  expression of Lyn and HGAL in B cells: couldn't reduce the expression
  expression of Lyn and HGAL in CD4+ T cells: both decreased
  expression of Lyn and HGAL in CD8+ T cells: reduced the expression
[11]
  Src and Lyn SFK protein levels: more pronounced dose and time dependent decrease
PBMC [12]; 0-10 ug/ml, 4 days
  frequency of CD4+ and CD8+ T cells: not changed
  viability of PBMC: markedly reduced
PBMC [12]; 96 hours
  B cells and monocyte CD14+ numbers: significantly decreased
[13]
  percentage growth inhibition (GI): significantly higher
[14]
  Bip protein content (ER stress marker): increased Bip protein content
  protein level of Src and Lyn: reduced the protein level of Src and Lyn significantly
  P-tyrosine phosphorylation (PY99), P-ERK activation, P-SFK: inhibit

## Cc1nc(Nc2ncc(C(=O)Nc3c(C)cccc3Cl)s2)cc(N2CCN(CCO)CC2)n1 [dasatinib, reference compound]
BL2 and IM9 cells
  effect of addition to PCLX-001 on viability: No additive or synergistic effects
  effect on viability of BL2 and IM9 cells: minimal effect
  cell death: less than 5%
[8]
  sensitivity of SU-DHL-10: equally sensitive
[14]
  P-tyrosine phosphorylation (PY99), P-ERK activation, P-SFK: inhibit

## C=CC(=O)N1CCC[C@@H](n2nc(-c3ccc(Oc4ccccc4)cc3)c3c(N)ncnc32)C1 [ibrutinib]
BL2 and IM9 cells
  effect of addition to PCLX-001 on viability: No additive or synergistic effects
  effect on viability of BL2 and IM9 cells: minimal effect
  cell death: less than 5%

Source: patent publication US20240350481A1, “USE OF N-MYRISTOYL TRANSFERASE (NMT) INHIBITORS IN THE TREATMENT OF CANCER, AUTOIMMUNE DISORDERS, AND INFLAMMATORY DISORDERS” (PACYLEX PHARMACEUTICALS INC., priority 2020, published 2024)
